Results reported in PubChem BioAssay AID504834 (National Center for Advancing Translational Sciences (NCATS), 2011).
Where “and” joins values, the source holds several entries; their conditions need not be identical. Identical values can stand only once. Hit rate of the full screen: of about 320,000 compounds, about 22,000 (6.9%) were called active. The shares of active, inactive and inconclusive entries below differ from those in the screen. Calls follow the shape of the dose curve; as a rule, active = well fitted inhibition curve with a large enough effect; inconclusive = small, poorly fitted or top-dose-only effect, or another doubt; inactive = no such curve, though single readings can be large or run the other way. Potencies beside an inconclusive call are fits to weak or partial responses and may not hold up.

Assay: Primary qHTS for delayed death inhibitors of the malarial parasite plastid, 96 hour incubation
Details: P. falciparum luciferase reporter growth; series mostly up to 28.7 µM
Summary of the method: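 Delayed-death screen, second-generation endpoint: infected erythrocytes, 2% hematocrit, 0.05% parasitemia final; 96 hours at 37 C, 5% CO2; luciferase detection reagent; luminescence decrease equals reduced growth.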
Potency is read from the fitted curve at half-maximal effect.

Compound	Potency
Cc1ccc(NC(=O)c2ccc(CSc3nnc(C)s3)cc2)cc1	inactive
CCCCCn1c(SCC2CCCO2)nc2cc(C(=O)N3CCC(C(N)=O)CC3)ccc2c1=O (stereo not given)	inactive
COc1ccc([C@H]2CC(=O)C=C(c3cccc4c3Oc3ccccc3S4)C2)cc1	inconclusive: 14.7 µM [inhibitor, single point]
CC(O)(C#CCN1CCCCC1)c1ccccc1 (stereo not given)	inactive
NC(=S)NN=C1C2CC3CC(C2)CC1C3	inconclusive: 13.1 µM [inhibitor, single point]
NC(=O)CSc1nc(-c2ccccc2)nc2c1CCCC2	active: 7.38 µM
COc1ccc2[nH]c3c(=O)n(N)c(C)nc3c2c1	inactive
CCCCn1c(CN2CCN(C(=O)OCC)CC2)nc2c1c(=O)n(C)c(=O)n2C	inconclusive: 0.415 µM [inhibitor, full curve, poor fit]
C=CCN1CN(Cc2ccco2)CNC1=S	inactive
Cc1ccc(NC(=O)Cc2ccc3c(c2)CCCC3)cc1C	inactive
CCOc1ccc(C(=O)Nc2nccs2)cc1[N+](=O)[O-]	inconclusive: 18.5 µM [inhibitor, single point]
O=C(COc1ncnc2ccccc12)N1CCN(c2ccccc2)CC1	inactive
Cn1c(C(=O)NCCCN2CCN(c3cccc(Cl)c3)CC2)cc2c(=O)n(C)c3ccccc3c21	inconclusive: 2.94 µM [inhibitor, partial curve]
Cc1ccc2c(c1)NC(=O)C(CC(=O)O)O2 (stereo not given)	inconclusive: 2.08 µM [inhibitor, single point]
Cc1ccnc(SCC(=O)N2CCN(c3cccc(Cl)c3)CC2)n1	inconclusive: 10.4 µM [inhibitor, single point]
CC1(C)CC(=O)c2sc(NC(=O)c3cccs3)nc2C1	inactive
Cc1ccc(C)c(NC(=O)CN(C)C(=O)c2oc3c(Cl)cccc3c2C)c1	active: 2.94 µM
CCOc1ccc(NC(=O)c2ccc3c(c2)N(Cc2ccc(F)cc2)C(=O)CS3=O)cc1 (stereo not given)	inconclusive: 9.28 µM [inhibitor, partial curve, poor fit]
CCCCOc1ccc(OCCNC(=O)C2CCCN2C(=O)Nc2ccccc2)cc1 (stereo not given)	inconclusive: 10.4 µM [inhibitor, single point]
COc1ccccc1CCNC1CCCC(C)C1 (stereo not given)	inactive
CN(Cc1nccs1)C(=O)C1CCC(=O)N(CCc2ccc(Cl)cc2)C1 (stereo not given)	inconclusive: 11.7 µM [inhibitor, single point]
COc1ccccc1-c1ccc(SCC(=O)NC2CCCCC2)nn1	inactive
Cc1c(O)ccc(-c2n[nH]c(C(=O)O)c2-c2nc3ccccc3s2)c1O	inactive
COC(=O)c1cccc(NC(=O)CCc2cc(OC)c(OC)c(OC)c2)c1	inactive

Compound	Potency
CC(=O)OC[C@H]1O[C@@H](O/N=C/[C@@H](C)[C@H](OCc2ccccc2)C(C)C)[C@H](OC(C)=O)[C@@H](OC(C)=O)[C@@H]1OC(C)=O	inconclusive: 10.4 µM [inhibitor, single point]
CN(C)CCn1c2c(c(SCC(=O)Nc3cccc4ccccc34)nc1=O)CCC2	inconclusive: 18.5 µM [inhibitor, single point]
O=c1c2ccccc2[se]n1-c1ccccc1	inconclusive: 19 µM [inhibitor, single point] and inconclusive: 13.1 µM [inhibitor, partial curve, poor fit]
Cc1cc(=O)[nH]c(SCC(=O)NC2CCCc3ccccc32)n1 (stereo not given)	inactive
O=C(NCC1CCCCC1)C12CN(Cc3ccccc3)CC1C(c1cccc([N+](=O)[O-])c1)=NO2 (stereo not given)	inconclusive: 0.928 µM [inhibitor, partial curve, poor fit]
Cc1c(Cl)cccc1NC(=O)N1CCN(C(=O)c2ccco2)CC1	inactive
Cc1ccc(OCC(=O)N2CCN(S(=O)(=O)c3ccc(Cl)cc3)CC2)c([N+](=O)[O-])n1	inconclusive: 14.7 µM [inhibitor, single point]
CSC1CCCCC1(O)CSc1nc2c(cc1C#N)CCCC2 (stereo not given)	inactive
O=C(Cn1c(CO)nc2ccccc21)NCCc1ccc(F)cc1	inactive
O=S(=O)(Nc1ccccn1)c1cccs1	inactive
COc1cccc(CNc2ncnc3cc(Cl)ccc23)c1	inactive
O=C1Nc2ccc(S(=O)(=O)N3CCCC3)c3cccc1c23	inconclusive: 9.28 µM [inhibitor, single point]
COc1ccc(NC(=O)COC(=O)c2cc(SC)ccc2Cl)c(OC)c1	inactive
COc1ccccc1C1CC(c2ccc(F)cc2)Nc2ncnn21 (stereo not given)	inconclusive: 0.208 µM [inhibitor, full curve, poor fit]
CCOc1ccc(N(CC(=O)Nc2nccs2)S(=O)(=O)c2c(C)[nH]c(=O)[nH]c2=O)cc1	inconclusive: 18.5 µM [inhibitor, single point]
O=C(NCc1ccc(N2CCCC2=O)cc1)c1cn(CCc2ccccc2)nn1	inconclusive: 18.5 µM [inhibitor, single point]
CC(=O)C1=C(C)NC(SCC(=O)c2ccccc2)=C(C#N)C1c1ccco1 (stereo not given)	inconclusive: 18.5 µM [inhibitor, single point]
COCCOC(=O)c1c(NC(=O)COC(=O)c2ccc(C)o2)sc(C(N)=O)c1C	inconclusive: 18.5 µM [inhibitor, single point]
CN(CC(O)Cn1c2ccccc2c2ccccc21)S(C)(=O)=O (stereo not given)	inactive
CCOC(=O)C(C)Oc1cccc2c(=O)n(CC(=O)NCc3ccc4c(c3)OCO4)ccc12 (stereo not given)	inconclusive: 18.5 µM [inhibitor, single point]
Cc1ccccc1SCCNC(=O)c1ccccc1Br	inconclusive: 7.38 µM [inhibitor, partial curve, poor fit]
COc1ccc(C2SCC(C(=O)NCc3ccc(F)cc3)N2C(C)=O)cc1 (stereo not given)	inconclusive: 11.7 µM [inhibitor, single point]
CCOC(=O)N1CCN(C(=O)Cn2nc(-c3ccc(Cl)cc3)ccc2=O)CC1	inactive
CC(C)OCCCn1c(=N)c(S(=O)(=O)c2ccccc2)cc2c(=O)n3ccccc3nc21	inconclusive: 11.7 µM [inhibitor, single point]

Compound	Potency
c1ccc(Cn2cc(CN3CCCO3)c(-c3ccc4c(c3)OCO4)n2)cc1	inconclusive: 5.86 µM [inhibitor, partial curve, poor fit]
CC(C)CSC1=NSC2=NC(=O)/C(=C\c3ccccc3)C(=N)N12	inconclusive: 10.4 µM [inhibitor, partial curve, poor fit]
CCCCn1c(N)c(N(CCC(C)C)C(=O)c2ccc([N+](=O)[O-])s2)c(=O)[nH]c1=O	inconclusive: 11.7 µM [inhibitor, single point]
CCc1noc(C)c1C(=O)Nc1ccc(C)c(S(=O)(=O)N2CCCCCC2)c1	inconclusive: 11.7 µM [inhibitor, single point]
C=CCN(C(=O)Nc1ccc(OC)cc1)c1nnc(-c2ccncc2)s1	inconclusive: 18.5 µM [inhibitor, single point]
CCC(=O)N1CCN(c2ccc(NC(=O)c3ccc(-c4ccccc4)cc3)cc2)CC1	inconclusive: 1.47 µM [inhibitor, partial curve, poor fit]
O=C(CN1CCN(S(=O)(=O)c2ccc(Cl)s2)CC1)NCc1ccc(Cl)cc1	inconclusive: 8.28 µM [inhibitor, single point]
CN(C)c1ccc(C(=O)N/N=C/c2cc(Br)cc(Br)c2O)cc1	inconclusive: 11.7 µM [inhibitor, single point]
CCOc1cc(N2CCOCC2)c(OCC)cc1NC(=O)c1ccc(F)c(S(=O)(=O)N2CCOCC2)c1	inactive
Cc1ccc(N2C(=O)CC(N3CCN(c4ccccn4)CC3)C2=O)cc1 (stereo not given)	inactive
COc1cccc(-c2cc(C(=O)N3CCCCCC3)no2)c1	inconclusive: 6.57 µM [inhibitor, partial curve, poor fit]
Cc1cccc2cc(C#N)c(SCC(=O)N3CCC(C)CC3)nc12	inactive
Cc1ccccc1-n1c(C)nc2sccc2c1=O	inconclusive: 0.0037 µM [inhibitor, full curve, poor fit]
COc1ccccc1NC(=O)CSc1nn2c(=O)c(C)nnc2s1	inconclusive: 13.1 µM [inhibitor, single point]
O=C(NCCCN1CCOCC1)c1cc2ccccc2cc1O	inconclusive: 18.5 µM [inhibitor, single point]
Cc1ccc(-c2nnc(-c3ccccc3)c(N3CCOCC3)n2)cc1	inconclusive: 16.5 µM [inhibitor, partial curve, poor fit]
O=[N+]([O-])c1ccc2c(c1)OCCOCCOCCOCCOCCOCCO2	inconclusive: 4.15 µM [inhibitor, partial curve, poor fit]
Cc1ccc(C(=O)Nc2ccc(C(=O)N/N=C/c3ccc(C)o3)cc2)cc1	inactive
Cc1ccccc1-c1nc(CS(=O)CC(=O)NCCCN(C)c2ccccc2)c(C)o1 (stereo not given)	inactive
O=C(NCCN1CCOCC1)C1CCN(c2ncnc3c2sc2cccc(F)c23)CC1	inconclusive: 14.7 µM [inhibitor, partial curve, poor fit]
COc1ccc(CCNC(=O)c2cc(-c3ccccc3)c(N3CCOCC3)s2)c(OC)c1OC	inconclusive: 5.22 µM [inhibitor, partial curve]
Cc1ccc(C)c(-c2csc(-c3cccnc3)n2)c1	inconclusive: 18.5 µM [inhibitor, single point]
